{"source": "patent US12521393B2", "about": "“Cytotoxicity targeting chimeras for CCR2-expressing cells” (GLAXOSMITHKLINE INTELLECTUAL PROPERTY DEVELOPMENT LIMITED, priority 2021, dated 2026)", "biological_target": "anti-cotinine antibody (SEQ ID NO: 11/12, rabbit variable region with human IgG1 Fc DE mutation)", "assay": "SPR binding of anti-cotinine antibody to ARM compounds, Biacore T200, 37° C. (Example 202)", "settings": "SPR Biacore T200, 37° C., pH 7.4, antibody SEQ ID NO: 11/12 captured on protein A; Kd in molar", "description": "Anti-cotinine antibodies having a heavy chain sequence of SEQ ID NO: 11 and a light chain sequence of SEQ ID NO: 12 (rabbit variable region with human IgG1 Fc domain containing a DE mutation (S239D/1332E)) were captured on one or more flow cells of a protein A sensor chip (Cytiva) using a Biacore T200 while reserving flow cell 1 as a reference. Following capture, a 3000 second wait step was included to reduce drift during compound analysis. ARM compounds of Formula (I) were then injected at 100 μL/min with 200 and 2000 second association and dissociation times. The entire experiment was run at 37° C. with running buffer containing 10 mM HEPES pH 7.4, 150 mM NaCl, 0.005% P20 and 1% DMSO. […] The experiment was run using Biacore T200 control software and evaluated using Biacore T200 Evaluation software. Curves were fit with a 1:1 kinetic binding model to obtain kon (1/Ms), koff(1/s), Kd (M) determined as koff/kon, and residence time determined as 1/koff (s).\nAnti-cotinine antibody was tested for binding to ARMs compounds of Formula (I) of the invention in the above assay in or more experimental runs and the results are shown in Table 5 below. […] The pKd value is the negative log of the Kd value, wherein the Kd value is the dissociation constant measured in molar (M) as noted above. […]", "note": "For at least one compound, name, drawing or mass did not settle the structure."}
{"compound": "CN1C(=O)C[C@H](C(=O)NCCOCCOCCOCCOCCOCCOCCOCCOCCC(=O)N[C@@H]2C[C@H](NC(C)(C)C)CC[C@@H]2N2CC[C@H](Nc3ncnc4ccc(C(F)(F)F)cc34)C2=O)[C@H]1c1cccnc1", "note": "[Example 36, (2S,3S)-N-(27-(((1R,2S,5R)-5-(tert-Butylamino)-2-((S)-2-oxo-3-((6-(trifluoromethyl)quinazolin-4-yl)amino)pyrrolidin-1-yl)cyclohexyl)amino)-27-oxo-3,6,9,12,15,18,21,24-octaoxaheptacosyl)-1-methyl-5-oxo-2-(pyridin-3-yl)pyrrolidine-3-carboxamide]", "values": [{"measurement": "pKd of Antibody for ARM Compound of Formula (I)", "result": 8.9915}]}
